Reference: the supplement of paper PMC10849652
The list shows a part of the results. Residues, ends and D or L forms follow the SMILES beside them. *: point of attachment. Cbz = O=C(OCc1ccccc1)*

The chains behind the UniProt entries cited, without tags or fusion partners. Where a name states a change or a piece, a line headed by the entry shows the natural chain unless it says otherwise.
UniProt O75663: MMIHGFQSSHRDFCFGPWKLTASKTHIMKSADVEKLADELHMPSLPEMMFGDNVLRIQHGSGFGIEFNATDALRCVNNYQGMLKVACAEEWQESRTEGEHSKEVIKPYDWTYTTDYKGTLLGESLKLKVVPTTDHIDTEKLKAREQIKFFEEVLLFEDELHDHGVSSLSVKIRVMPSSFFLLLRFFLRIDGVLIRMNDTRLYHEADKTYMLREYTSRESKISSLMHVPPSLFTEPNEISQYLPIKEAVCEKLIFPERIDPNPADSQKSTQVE
UniProt Q9NYB0: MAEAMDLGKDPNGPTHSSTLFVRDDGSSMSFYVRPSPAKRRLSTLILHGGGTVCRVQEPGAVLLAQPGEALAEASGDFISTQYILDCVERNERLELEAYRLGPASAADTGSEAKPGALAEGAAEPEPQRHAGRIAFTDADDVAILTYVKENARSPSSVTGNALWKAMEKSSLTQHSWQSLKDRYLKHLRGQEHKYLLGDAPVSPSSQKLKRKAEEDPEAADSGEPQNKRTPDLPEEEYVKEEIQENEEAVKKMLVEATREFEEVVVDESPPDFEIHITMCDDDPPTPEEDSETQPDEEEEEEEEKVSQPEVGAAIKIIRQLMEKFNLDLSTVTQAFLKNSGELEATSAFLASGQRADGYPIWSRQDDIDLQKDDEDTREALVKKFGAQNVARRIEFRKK
UniProt Q8IWB9: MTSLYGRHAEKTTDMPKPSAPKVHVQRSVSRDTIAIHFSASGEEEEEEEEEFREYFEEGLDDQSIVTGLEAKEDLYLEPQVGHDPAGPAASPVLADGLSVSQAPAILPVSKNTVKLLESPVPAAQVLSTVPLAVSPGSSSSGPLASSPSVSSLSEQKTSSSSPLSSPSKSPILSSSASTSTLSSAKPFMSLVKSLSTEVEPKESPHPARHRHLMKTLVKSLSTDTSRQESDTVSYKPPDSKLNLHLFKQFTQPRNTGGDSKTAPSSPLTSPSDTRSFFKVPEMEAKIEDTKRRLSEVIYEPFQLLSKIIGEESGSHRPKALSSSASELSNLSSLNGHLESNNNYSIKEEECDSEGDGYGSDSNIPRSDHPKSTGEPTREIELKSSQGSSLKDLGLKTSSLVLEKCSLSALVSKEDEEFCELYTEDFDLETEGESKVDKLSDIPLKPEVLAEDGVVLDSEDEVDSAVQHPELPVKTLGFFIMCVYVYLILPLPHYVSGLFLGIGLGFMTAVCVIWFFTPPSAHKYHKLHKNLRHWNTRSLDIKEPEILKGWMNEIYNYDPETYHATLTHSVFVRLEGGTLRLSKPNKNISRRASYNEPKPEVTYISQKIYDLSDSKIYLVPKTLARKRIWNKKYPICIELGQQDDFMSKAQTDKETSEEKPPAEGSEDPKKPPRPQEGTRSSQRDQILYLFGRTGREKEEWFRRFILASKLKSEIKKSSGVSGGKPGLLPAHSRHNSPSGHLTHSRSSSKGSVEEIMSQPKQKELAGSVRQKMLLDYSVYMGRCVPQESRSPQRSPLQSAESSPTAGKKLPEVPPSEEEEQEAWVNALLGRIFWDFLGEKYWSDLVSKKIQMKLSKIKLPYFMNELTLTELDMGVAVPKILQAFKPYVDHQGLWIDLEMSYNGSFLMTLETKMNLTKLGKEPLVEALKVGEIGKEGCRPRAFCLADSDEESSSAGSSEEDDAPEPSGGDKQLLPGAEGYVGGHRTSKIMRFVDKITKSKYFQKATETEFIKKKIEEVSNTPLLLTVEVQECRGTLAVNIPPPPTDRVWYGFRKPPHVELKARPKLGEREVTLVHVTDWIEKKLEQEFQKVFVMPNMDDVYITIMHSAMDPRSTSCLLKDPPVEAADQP
UniProt P01033: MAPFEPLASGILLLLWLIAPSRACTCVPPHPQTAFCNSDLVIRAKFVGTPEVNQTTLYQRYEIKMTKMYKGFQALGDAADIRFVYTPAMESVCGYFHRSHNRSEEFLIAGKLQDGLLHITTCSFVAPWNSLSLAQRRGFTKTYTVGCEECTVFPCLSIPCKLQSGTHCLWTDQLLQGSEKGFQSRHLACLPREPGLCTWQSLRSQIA
UniProt Q9Y584: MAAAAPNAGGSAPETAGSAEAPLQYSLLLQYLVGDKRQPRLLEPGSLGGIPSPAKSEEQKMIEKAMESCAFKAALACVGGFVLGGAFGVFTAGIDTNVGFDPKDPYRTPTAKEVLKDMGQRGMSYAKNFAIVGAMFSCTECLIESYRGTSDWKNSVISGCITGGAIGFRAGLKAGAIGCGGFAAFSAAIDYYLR
UniProt Q96CP7: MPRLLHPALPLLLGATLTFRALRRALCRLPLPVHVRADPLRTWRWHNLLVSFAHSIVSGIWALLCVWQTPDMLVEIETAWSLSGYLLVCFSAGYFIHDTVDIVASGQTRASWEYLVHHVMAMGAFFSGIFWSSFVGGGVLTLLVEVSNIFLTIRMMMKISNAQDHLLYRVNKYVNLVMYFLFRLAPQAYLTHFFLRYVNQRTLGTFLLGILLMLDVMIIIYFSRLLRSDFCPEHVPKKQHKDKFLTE
UniProt Q3ZCQ8: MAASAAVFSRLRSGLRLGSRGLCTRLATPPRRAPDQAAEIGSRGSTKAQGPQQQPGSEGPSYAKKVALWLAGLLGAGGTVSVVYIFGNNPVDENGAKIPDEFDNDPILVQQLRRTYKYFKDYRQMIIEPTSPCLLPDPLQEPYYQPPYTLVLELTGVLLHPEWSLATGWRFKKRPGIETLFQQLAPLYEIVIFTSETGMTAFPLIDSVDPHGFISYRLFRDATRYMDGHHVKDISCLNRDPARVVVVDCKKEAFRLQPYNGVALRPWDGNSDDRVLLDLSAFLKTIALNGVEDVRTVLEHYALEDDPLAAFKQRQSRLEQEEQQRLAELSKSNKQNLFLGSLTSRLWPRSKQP
UniProt O60830: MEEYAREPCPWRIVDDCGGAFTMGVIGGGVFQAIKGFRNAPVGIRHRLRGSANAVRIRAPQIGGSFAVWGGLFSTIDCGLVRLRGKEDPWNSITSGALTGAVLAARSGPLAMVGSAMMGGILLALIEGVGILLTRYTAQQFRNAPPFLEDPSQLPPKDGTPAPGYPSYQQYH
UniProt O95551: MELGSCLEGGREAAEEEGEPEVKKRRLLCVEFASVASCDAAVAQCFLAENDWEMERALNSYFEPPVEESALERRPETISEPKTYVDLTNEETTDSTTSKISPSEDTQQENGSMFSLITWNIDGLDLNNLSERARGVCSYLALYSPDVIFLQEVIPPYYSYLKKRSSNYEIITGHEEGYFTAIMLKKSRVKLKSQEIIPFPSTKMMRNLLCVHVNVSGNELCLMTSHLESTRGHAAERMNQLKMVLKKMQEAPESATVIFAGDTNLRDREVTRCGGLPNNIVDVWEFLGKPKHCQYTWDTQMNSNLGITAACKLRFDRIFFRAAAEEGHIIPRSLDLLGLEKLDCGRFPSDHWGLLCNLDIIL
UniProt Q86XR7, whole entry, looked up: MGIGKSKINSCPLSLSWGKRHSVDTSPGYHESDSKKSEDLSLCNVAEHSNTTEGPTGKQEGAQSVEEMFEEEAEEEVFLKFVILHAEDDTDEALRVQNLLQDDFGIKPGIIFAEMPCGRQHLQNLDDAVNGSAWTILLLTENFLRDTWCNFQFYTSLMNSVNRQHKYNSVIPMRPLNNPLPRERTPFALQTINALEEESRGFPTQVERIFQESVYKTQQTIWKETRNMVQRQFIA
UniProt Q9NWX6: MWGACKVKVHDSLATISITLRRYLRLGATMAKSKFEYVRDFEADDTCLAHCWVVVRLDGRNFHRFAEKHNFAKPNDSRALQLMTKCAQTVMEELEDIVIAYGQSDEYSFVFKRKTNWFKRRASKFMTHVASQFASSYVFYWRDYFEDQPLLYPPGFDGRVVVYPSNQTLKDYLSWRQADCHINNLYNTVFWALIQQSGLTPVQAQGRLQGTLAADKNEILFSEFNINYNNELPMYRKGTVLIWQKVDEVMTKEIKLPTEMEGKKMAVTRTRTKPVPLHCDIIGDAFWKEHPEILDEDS
UniProt Q9BZK7: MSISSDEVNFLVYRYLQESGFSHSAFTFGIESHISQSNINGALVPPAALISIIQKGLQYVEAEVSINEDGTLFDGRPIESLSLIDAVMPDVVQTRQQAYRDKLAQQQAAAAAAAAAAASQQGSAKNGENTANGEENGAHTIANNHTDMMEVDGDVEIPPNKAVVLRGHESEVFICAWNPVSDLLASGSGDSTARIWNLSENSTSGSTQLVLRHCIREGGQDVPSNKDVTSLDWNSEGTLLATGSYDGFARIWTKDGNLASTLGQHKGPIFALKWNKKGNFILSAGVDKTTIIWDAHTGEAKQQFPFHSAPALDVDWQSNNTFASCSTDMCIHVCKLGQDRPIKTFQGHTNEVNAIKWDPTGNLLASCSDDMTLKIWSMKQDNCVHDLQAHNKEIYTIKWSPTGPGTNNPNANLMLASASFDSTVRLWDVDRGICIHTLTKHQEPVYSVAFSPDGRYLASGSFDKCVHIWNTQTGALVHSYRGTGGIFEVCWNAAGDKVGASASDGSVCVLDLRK
UniProt Q8NFU7: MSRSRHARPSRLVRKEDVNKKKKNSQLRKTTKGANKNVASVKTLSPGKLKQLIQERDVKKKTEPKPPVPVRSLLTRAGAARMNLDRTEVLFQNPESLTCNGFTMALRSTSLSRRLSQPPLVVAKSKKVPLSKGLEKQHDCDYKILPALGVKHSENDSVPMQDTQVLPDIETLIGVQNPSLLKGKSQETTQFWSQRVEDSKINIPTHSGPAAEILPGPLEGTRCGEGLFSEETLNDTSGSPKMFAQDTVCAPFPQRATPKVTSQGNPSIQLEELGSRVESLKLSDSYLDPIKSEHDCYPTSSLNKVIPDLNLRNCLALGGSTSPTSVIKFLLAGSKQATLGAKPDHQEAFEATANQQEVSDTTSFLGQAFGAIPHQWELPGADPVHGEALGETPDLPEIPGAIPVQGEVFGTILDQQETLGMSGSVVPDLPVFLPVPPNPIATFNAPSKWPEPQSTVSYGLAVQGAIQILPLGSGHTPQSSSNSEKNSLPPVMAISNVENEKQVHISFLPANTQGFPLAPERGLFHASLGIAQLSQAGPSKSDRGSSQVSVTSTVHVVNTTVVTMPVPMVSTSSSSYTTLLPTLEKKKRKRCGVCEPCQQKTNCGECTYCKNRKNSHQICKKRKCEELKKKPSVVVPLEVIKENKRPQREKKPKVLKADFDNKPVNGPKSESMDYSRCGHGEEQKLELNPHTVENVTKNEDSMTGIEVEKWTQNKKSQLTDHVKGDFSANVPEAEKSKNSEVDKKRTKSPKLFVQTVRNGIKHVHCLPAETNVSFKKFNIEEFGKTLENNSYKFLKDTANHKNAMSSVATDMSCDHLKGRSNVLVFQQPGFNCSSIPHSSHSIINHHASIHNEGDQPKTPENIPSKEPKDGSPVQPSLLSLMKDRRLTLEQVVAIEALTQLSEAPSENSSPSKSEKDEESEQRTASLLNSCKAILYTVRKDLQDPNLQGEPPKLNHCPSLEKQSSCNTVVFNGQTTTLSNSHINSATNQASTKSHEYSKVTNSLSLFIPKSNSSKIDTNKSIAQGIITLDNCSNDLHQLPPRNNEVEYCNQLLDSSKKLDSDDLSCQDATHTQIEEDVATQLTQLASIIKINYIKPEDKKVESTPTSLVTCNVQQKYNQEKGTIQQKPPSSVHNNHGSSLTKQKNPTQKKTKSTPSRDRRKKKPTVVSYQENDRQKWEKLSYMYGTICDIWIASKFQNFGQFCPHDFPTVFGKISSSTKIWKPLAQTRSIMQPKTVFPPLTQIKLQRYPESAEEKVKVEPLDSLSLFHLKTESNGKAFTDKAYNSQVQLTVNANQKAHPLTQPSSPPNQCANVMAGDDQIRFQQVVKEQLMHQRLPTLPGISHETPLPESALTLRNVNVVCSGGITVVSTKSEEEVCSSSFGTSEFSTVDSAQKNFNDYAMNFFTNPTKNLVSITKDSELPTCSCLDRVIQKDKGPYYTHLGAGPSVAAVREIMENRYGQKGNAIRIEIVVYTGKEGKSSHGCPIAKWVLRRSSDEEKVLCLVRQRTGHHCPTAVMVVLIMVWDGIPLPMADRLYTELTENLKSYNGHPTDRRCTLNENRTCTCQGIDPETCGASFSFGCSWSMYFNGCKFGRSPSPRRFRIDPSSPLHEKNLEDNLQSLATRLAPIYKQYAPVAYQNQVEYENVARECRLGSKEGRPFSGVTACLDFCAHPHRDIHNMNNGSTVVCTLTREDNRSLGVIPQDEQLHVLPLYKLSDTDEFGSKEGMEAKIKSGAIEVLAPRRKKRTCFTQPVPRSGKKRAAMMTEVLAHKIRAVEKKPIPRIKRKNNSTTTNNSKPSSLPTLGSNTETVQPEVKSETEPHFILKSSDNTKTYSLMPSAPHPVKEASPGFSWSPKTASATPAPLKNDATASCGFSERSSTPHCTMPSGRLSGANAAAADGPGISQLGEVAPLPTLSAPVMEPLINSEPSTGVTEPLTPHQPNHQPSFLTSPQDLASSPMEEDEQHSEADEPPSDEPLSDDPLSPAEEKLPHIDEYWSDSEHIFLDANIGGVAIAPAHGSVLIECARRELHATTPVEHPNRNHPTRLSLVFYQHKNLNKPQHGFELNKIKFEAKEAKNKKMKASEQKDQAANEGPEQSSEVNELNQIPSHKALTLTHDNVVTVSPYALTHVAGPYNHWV

Assays:
Test in all cases: log2 fold change, soluble protein after heating vs DMSO (PISA); higher = thermal stabilisation; K562 cells, 10 uM, 30 min; active = over 0.2 and 3.5 SD of the protein, either way, in both replicates (recomputed)
erlotinib = compound: C#Cc1cccc(Nc2ncnc3cc(OCCOC)c(OCCOC)cc23)c1 [erlotinib]
In short: (§1)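 K562 cells at 2×10^6 cells/mL were given 10 μM compound for 30 min. Aliquots then went through 3 min of heating across 48°C-58°C, were pooled, and were extracted in PBS with 0.5% NP-40 at 4°C, and the supernatant after 21,000xg for 90 min was quantified by TMTpro 16plex LC-MS/MS with channel sums equalised. Thermal stability relative to control samples, from duplicates, is given as log2 fold change.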

[1] = compound: C/C(=N\NC(=O)C1=CC(=CC=C1)S(=O)(=O)N2CCOCC2)/C3=C(C=CC(=C3)Cl)O
In short: as §1

[2] = compound: C1=CC(=C(C=C1Cl)C2=NC3=NC=CN=C3C(=N2)NC4=CC=NC=C4)F
In short: as §1

[3] = compound: C1=CC(=CC=C1C2=NC3=C(N2)C=C(C=C3)C(=O)N)OC4=CC=C(C=C4)Cl
In short: as §1

[4] = compound: C1=CC2=C(C=CC(=C2)/C=C\3/C(=O)NC(=NCC4=CC=CS4)S3)N=C1
In short: as §1

[5] = compound: C1=CC2=NC=CN=C2C=C1/C=C/3\C(=O)NC(=O)S3
In short: as §1

[6] = compound: C1=CC=C(C=C1)C2=NC(=C(N2)C3=CC=NC=C3)C4=CC(=C(C=C4)Cl)O
In short: as §1

[7] = compound: C1=CC=C2C(=C1)C3=NNC4=CC=CC(=C43)C2=O
In short: as §1

[8] = compound: C1CCN(C1)C(=O)NC2=CC=CC(=C2)NC3=NC=C(C(=N3)NCCC4=CN=CN4)Br
In short: as §1

[9] = compound: C1CN(CCC1(CC2=CC=C(C=C2)Cl)N)C3=NC=NC4=C3C=CN4
In short: as §1

IRAK-1-4 Inhibitor I = compound: C1COCCN1CCN2C3=CC=CC=C3N=C2NC(=O)C4=CC(=CC=C4)[N+](=O)[O-] [IRAK-1-4 Inhibitor I]
In short: as §1

ibrutinib = compound: C=CC(=O)N1CCC[C@@H](n2nc(-c3ccc(Oc4ccccc4)cc3)c3c(N)ncnc32)C1 [ibrutinib]
In short: as §1

[10] = compound: CC(=O)c1cnc2ccc(-c3cc(Cl)c(O)c(Cl)c3)nc2c1N[C@H]1CC[C@H](CN(C)C)CC1
In short: as §1

ralimetinib = compound: CC(C)(C)Cn1c(N)nc2ccc(-c3[nH]c(C(C)(C)C)nc3-c3ccc(F)cc3)nc21 [ralimetinib]
In short: as §1

[11] = compound: CC(C)(O)CC(=O)NCCn1ccc2ncnc(Nc3ccc(Oc4cccc(C(F)(F)F)c4)c(Cl)c3)c21
In short: as §1

[12] = compound: CC(C)C1=C2N=C(C=C(N2N=C1)NCC3=CC=CC=C3)NCCCCCCN
In short: as §1

[13] = compound: CC(C)C[C@@H](C=O)NC(=O)[C@H](CC(C)C)NC(=O)[C@H](CC(C)C)NC(=O)OCc1ccccc1
In short: as §1

pinometostat = compound: CC(C)N(C[C@H]1O[C@@H](n2cnc3c(N)ncnc32)[C@H](O)[C@@H]1O)[C@H]1C[C@@H](CCc2nc3cc(C(C)(C)C)ccc3[nH]2)C1 [pinometostat]
In short: as §1

[14] = compound: CC1=C(C2=C(C=C1)C(=O)C3=CC=CC=C3N2CCCN)C
In short: as §1

[15] = compound: CC1=C(C(CC(=O)N1)C2=CC=C(C=C2)C(F)(F)F)C(=O)NC3=C(C=C4C(=C3)C=NN4)F
In short: as §1

Measured: log2 fold change

TIPRL (UniProt O75663)
inactive: erlotinib 0.055 | [1] 0.097 | [2] 0.031 | [3] 0.009 | [4] 0.049 | [5] 0.036 | [6] -0.002 | [7] 0.03 | [8] 0.021 | [9] -0.041 | IRAK-1-4 Inhibitor I -0.011 | ibrutinib -0.005 | [10] -0.067 | ralimetinib -0.007 | [11] -0.065 | [12] -0.173 | [13] 0.048 | pinometostat -0.015 | [14] 0.017

TERF2IP (UniProt Q9NYB0)
inactive: erlotinib -0.046 | [1] 0 | [2] -0.016 | [3] -0.003 | [4] 0.022 | [5] 0.049 | [6] -0.038 | [7] -0.074 | [8] -0.047 | [9] -0.006 | IRAK-1-4 Inhibitor I -0.023 | ibrutinib -0.009 | [10] -0.151 | ralimetinib 0.038 | [11] 0.034 | [12] -0.147 | [13] 0.058 | pinometostat 0.024
active: [14] -0.33

TEX2 isoform 2 (UniProt Q8IWB9)
inactive: erlotinib 0.074 | [1] -0.032 | [2] -0.026 | [3] 0.002 | [4] 0.063 | [5] 0.084 | [6] 0.07 | [7] 0.011 | [8] -0.076 | [9] 0.037 | IRAK-1-4 Inhibitor I -0.127 | ibrutinib -0.09 | [10] -0.172 | ralimetinib -0.024 | [11] 0.079 | [12] 0.155 | [13] 0.091 | pinometostat 0.115 | [14] 0.064

TIMP1 (UniProt P01033)
inactive: erlotinib -0.014 | [1] 0.04 | [2] -0.017 | [3] -0.065 | [4] -0.015 | [5] -0.047 | [6] 0.053 | [7] -0.043 | [8] -0.002 | [9] 0.03 | IRAK-1-4 Inhibitor I 0.014 | ibrutinib 0.027 | [10] 0.01 | ralimetinib -0.001 | [11] 0.05 | [12] 0.119 | [13] -0.076 | pinometostat 0.032 | [15] -0.02 | [14] -0.144

TIMM22 (UniProt Q9Y584)
inactive: erlotinib -0.013 | [1] 0.212 | [2] 0.006 | [3] -0.003 | [4] -0.173 | [5] 0.05 | [6] 0.063 | [7] -0.011 | [8] -0.075 | [9] 0.05 | IRAK-1-4 Inhibitor I 0 | ibrutinib 0.014 | [10] 0.134 | ralimetinib 0.172 | [11] 0.046 | [12] 0.044 | [13] -0.129 | pinometostat -0.12 | [15] 0.027 | [14] 0.052

TFG (UniProt Q92734)
inactive: erlotinib -0.02 | [1] -0.008 | [2] 0.07 | [3] 0.015 | [4] -0.048 | [5] 0.019 | [6] -0.015 | [7] 0.025 | [8] -0.013 | [9] -0.02 | IRAK-1-4 Inhibitor I 0.045 | ibrutinib 0.032 | [10] 0.009 | ralimetinib -0.014 | [11] 0.027 | [12] 0.072 | [13] -0.004 | pinometostat -0.039 | [15] 0.003 | [14] -0.078

TLCD1 (UniProt Q96CP7)
inactive: erlotinib 0.026 | [1] 0.186 | [2] -0.115 | [3] 0.326 | [4] 0.069 | [5] -0.054 | [6] 0.133 | [7] 0.028 | [8] 0.017 | [9] 0.078 | IRAK-1-4 Inhibitor I 0.043 | ibrutinib 0.048 | [10] 0.115 | ralimetinib 0.065 | [11] -0.238 | [12] 0.015 | [13] -0.101 | pinometostat -0.041 | [15] -0.043 | [14] 0.193

TIMM50 isoform 2 (UniProt Q3ZCQ8)
inactive: erlotinib 0.016 | [1] 0.007 | [2] 0.026 | [3] 0.014 | [4] -0.001 | [5] 0.001 | [6] -0.016 | [7] 0.005 | [8] 0.02 | [9] 0.074 | IRAK-1-4 Inhibitor I 0.036 | ibrutinib 0.005 | [10] -0.058 | ralimetinib -0.074 | [11] -0.091 | [12] -0.014 | [13] -0.041 | pinometostat -0.023 | [15] -0.021 | [14] 0.032

2 consecutive records out of the list so far, quoted:
TLCD1 (UniProt Q96CP7)
inactive: erlotinib 0.026 | [1] 0.186 | [2] -0.115 | [3] 0.326 | [4] 0.069 | [5] -0.054 | [6] 0.133 | [7] 0.028 | [8] 0.017 | [9] 0.078 | IRAK-1-4 Inhibitor I 0.043 | ibrutinib 0.048 | [10] 0.115 | ralimetinib 0.065 | [11] -0.238 | [12] 0.015 | [13] -0.101 | pinometostat -0.041 | [15] -0.043 | [14] 0.193

TIMM50 isoform 2 (UniProt Q3ZCQ8)
inactive: erlotinib 0.016 | [1] 0.007 | [2] 0.026 | [3] 0.014 | [4] -0.001 | [5] 0.001 | [6] -0.016 | [7] 0.005 | [8] 0.02 | [9] 0.074 | IRAK-1-4 Inhibitor I 0.036 | ibrutinib 0.005 | [10] -0.058 | ralimetinib -0.074 | [11] -0.091 | [12] -0.014 | [13] -0.041 | pinometostat -0.023 | [15] -0.021 | [14] 0.032

Next records follow:

TIMM17B (UniProt O60830)
inactive: erlotinib -0.023 | [1] -0.085 | [2] -0.007 | [3] -0.012 | [4] -0.016 | [5] 0.042 | [6] -0.061 | [7] -0.027 | [8] 0.083 | [9] 0.097 | IRAK-1-4 Inhibitor I 0.117 | ibrutinib 0.034 | [10] 0.006 | ralimetinib -0.035 | [11] 0.023 | [12] 0.041 | [13] 0.023 | pinometostat 0.057 | [15] 0.009 | [14] -0.173

TGS1 (UniProt Q96RS0)
inactive: erlotinib 0.007 | [1] 0.084 | [2] 0.006 | [3] -0.005 | [4] 0.099 | [5] -0.063 | [6] -0.03 | [7] -0.028 | [8] -0.235 | [9] -0.026 | IRAK-1-4 Inhibitor I -0.103 | ibrutinib -0.084 | [10] -0.12 | ralimetinib 0.009 | [11] 0.07 | [12] -0.214 | [13] -0.029 | pinometostat 0.297 | [15] -0.028 | [14] 0.011

TIMM13 (UniProt Q9Y5L4)
inactive: erlotinib 0.018 | [1] 0 | [2] 0.315 | [3] 0 | [4] 0.003 | [5] 0.111 | [6] 0.063 | [7] -0.005 | [8] -0.025 | [9] -0.006 | IRAK-1-4 Inhibitor I -0.031 | ibrutinib 0.012 | [10] 0.01 | ralimetinib -0.008 | [11] -0.145 | [12] 0.048 | [13] -0.085 | pinometostat -0.092 | [14] 0.092

TDP2 isoform 2 (UniProt O95551)
inactive: erlotinib 0 | [1] 0.116 | [2] -0.013 | [3] 0.052 | [4] 0.034 | [5] 0.028 | [6] -0.055 | [7] 0.093 | [8] 0.026 | [9] -0.028 | IRAK-1-4 Inhibitor I 0.045 | ibrutinib -0.049 | [10] -0.013 | ralimetinib 0.029 | [11] -0.104 | [12] -0.097 | [13] 0.122 | pinometostat 0.025 | [15] 0.031 | [14] -0.1

TICAM2 isoform 2 (UniProt Q86XR7)
inactive: erlotinib -0.008 | [1] 0.05 | [2] 0.247 | [3] 0.045 | [4] -0.001 | [5] 0.016 | [6] 0.055 | [7] -0.007 | [8] 0.029 | [9] 0.074 | IRAK-1-4 Inhibitor I -0.002 | ibrutinib 0.02 | [10] 0.059 | ralimetinib 0.028 | [11] -0.019 | [12] 0.002 | [13] -0.111 | pinometostat -0.054 | [15] -0.011 | [14] -0.011

THG1L (UniProt Q9NWX6)
inactive: erlotinib -0.004 | [1] 0.012 | [2] 0.016 | [3] 0.012 | [4] 0.026 | [5] 0.061 | [6] -0.008 | [7] 0.01 | [8] 0.004 | [9] 0.021 | IRAK-1-4 Inhibitor I -0.014 | ibrutinib -0.021 | [10] 0.019 | ralimetinib -0.079 | [11] 0.005 | [12] 0.026 | [13] -0.05 | pinometostat -0.053 | [15] -0.007 | [14] -0.022

TBL1XR1 (UniProt Q9BZK7)
inactive: erlotinib -0.062 | [1] 0.049 | [2] 0.181 | [3] 0.043 | [4] -0.001 | [5] 0.053 | [6] 0.019 | [7] -0.031 | [8] 0.009 | [9] 0.026 | IRAK-1-4 Inhibitor I 0.015 | ibrutinib -0.017 | [10] -0.043 | ralimetinib -0.051 | [11] -0.002 | [12] 0.058 | [13] -0.005 | pinometostat -0.045 | [15] -0.001 | [14] 0.015

TET1 (UniProt Q8NFU7)
inactive: erlotinib 0.357 | [1] -0.535 | [2] 0.093 | [3] -0.091 | [4] 0.268 | [5] -0.008 | [6] 0.116 | [7] 0.102 | [8] -0.129 | [9] 0.136 | IRAK-1-4 Inhibitor I -0.001 | ibrutinib -0.011 | [10] 0.008 | ralimetinib 0.069 | [11] -0.185 | [12] 0.219 | [13] -0.159 | pinometostat -0.089 | [15] 0.146 | [14] 0.184
